Assay results published in PMC5414174, “DNA replication licensing factor Cdc6 and Plk4 kinase antagonistically regulate centrosome duplication via Sas-6” (Nature Communications, 2017).
No constants are given. Whether binding was seen depends on the method and setting. Binding seen in cells or lysates may run through a third protein. Some results given as binding are weak or reduced against the parent protein; the word gives no strength. Tags and fused reporters may be left off the sequences shown.

Tests used:
Assay in all cases: co-IP; co-transfected HEK293 cells, total cell extract, IP with GFP antibody on protein A Sepharose, 20 mM Tris, 125 mM NaCl, 0.5% NP-40, pH 7.5, 2 h at 4 °C; western blot with Myc and GFP antibodies; in Fig. 4d cells released into S phase
[1] = target: T1, GFP-tagged Cdc6 WT (human) (UniProt Q99741)
T1 sequence: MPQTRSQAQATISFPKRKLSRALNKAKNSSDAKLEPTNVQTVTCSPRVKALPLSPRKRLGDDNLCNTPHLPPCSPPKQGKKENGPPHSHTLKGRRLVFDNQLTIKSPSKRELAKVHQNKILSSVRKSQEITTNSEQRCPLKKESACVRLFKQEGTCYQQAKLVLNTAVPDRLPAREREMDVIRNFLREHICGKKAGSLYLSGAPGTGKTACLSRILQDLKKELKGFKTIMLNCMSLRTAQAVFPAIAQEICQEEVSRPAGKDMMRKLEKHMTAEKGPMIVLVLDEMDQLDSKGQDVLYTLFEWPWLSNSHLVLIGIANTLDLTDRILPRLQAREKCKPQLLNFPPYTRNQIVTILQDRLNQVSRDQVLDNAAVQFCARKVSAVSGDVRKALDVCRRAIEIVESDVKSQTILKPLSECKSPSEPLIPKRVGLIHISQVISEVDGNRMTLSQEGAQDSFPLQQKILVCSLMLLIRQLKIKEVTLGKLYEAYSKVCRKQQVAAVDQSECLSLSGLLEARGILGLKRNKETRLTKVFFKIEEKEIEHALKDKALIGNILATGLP

[2] = target: T2, GFP-tagged Cdc6 truncate amino acids 1–179 (human) (UniProt Q99741)
T2 sequence: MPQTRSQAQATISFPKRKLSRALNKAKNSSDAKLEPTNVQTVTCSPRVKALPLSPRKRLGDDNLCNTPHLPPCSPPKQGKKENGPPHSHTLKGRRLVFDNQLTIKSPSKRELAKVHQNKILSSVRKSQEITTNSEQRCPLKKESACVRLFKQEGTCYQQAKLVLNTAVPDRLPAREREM

[3] = target: T3, GFP-tagged Cdc6 truncate amino acids 179–407 (human) (UniProt Q99741)
T3 sequence: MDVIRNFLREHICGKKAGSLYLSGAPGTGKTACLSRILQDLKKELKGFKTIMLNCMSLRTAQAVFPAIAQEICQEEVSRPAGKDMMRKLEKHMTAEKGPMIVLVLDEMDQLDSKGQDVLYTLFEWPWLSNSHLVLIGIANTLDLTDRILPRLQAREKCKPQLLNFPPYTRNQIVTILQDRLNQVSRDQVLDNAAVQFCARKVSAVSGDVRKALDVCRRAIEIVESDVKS

[4] = target: T4, GFP-tagged Cdc6 truncate amino acids 407–560 (human) (UniProt Q99741)
T4 sequence: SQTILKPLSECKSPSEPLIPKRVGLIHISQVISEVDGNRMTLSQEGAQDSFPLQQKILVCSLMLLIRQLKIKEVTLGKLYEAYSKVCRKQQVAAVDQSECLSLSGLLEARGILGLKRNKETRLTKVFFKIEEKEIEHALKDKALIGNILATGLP

binding [1]: binds
binding [2]: binds
binding [3]: binds
binding [4]: no binding
B1: Myc-tagged Plk4 (enzyme, UniProt O00444 1-970)
chain: MATCIGEKIEDFKVGNLLGKGSFAGVYRAESIHTGLEVAIKMIDKKAMYKAGMVQRVQNEVKIHCQLKHPSILELYNYFEDSNYVYLVLEMCHNGEMNRYLKNRVKPFSENEARHFMHQIITGMLYLHSHGILHRDLTLSNLLLTRNMNIKIADFGLATQLKMPHEKHYTLCGTPNYISPEIATRSAHGLESDVWSLGCMFYTLLIGRPPFDTDTVKNTLNKVVLADYEMPSFLSIEAKDLIHQLLRRNPADRLSLSSVLDHPFMSRNSSTKSKDLGTVEDSIDSGHATISTAITASSSTSISGSLFDKRRLLIGQPLPNKMTVFPKNKSSTDFSSSGDGNSFYTQWGNQETSNSGRGRVIQDAEERPHSRYLRRAYSSDRSGTSNSQSQAKTYTMERCHSAEMLSVSKRSGGGENEERYSPTDNNANIFNFFKEKTSSSSGSFERPDNNQALSNHLCPGKTPFPFADPTPQTETVQQWFGNLQINAHLRKTTEYDSISPNRDFQGHPDLQKDTSKNAWTDTKVKKNSDASDNAHSVKQQNTMKYMTALHSKPEIIQQECVFGSDPLSEQSKTRGMEPPWGYQNRTLRSITSPLVAHRLKPIRQKTKKAVVSILDSEEVCVELVKEYASQEYVKEVLQISSDGNTITIYYPNGGRGFPLADRPPSPTDNISRYSFDNLPEKYWRKYQYASRFVQLVRSKSPKITYFTRYAKCILMENSPGADFEVWFYDGVKIHKTEDFIQVIEKTGKSYTLKSESEVNSLKEEIKMYMDHANEGHRICLALESIISEEERKTRSAPFFPIIIGRKPGSTSSPKALSPPPSVDSNYPTRERASFNRMVMHSAASPTQAPILNPSMVTNEGLGLTTTASGTDISSNSLKDCLPKSAQLLKSVFVKNVGWATQLTSGAVWVQFNDGSQLVVQAGVSSISYTSPNGQTTRYGENEKLPDYIKQKLQCLSSILLMFSNPTPNFH
